Values from PubChem BioAssay AID1259308 (NCATS, 2017).
Shown is an unselected part of about 59,000 deposited reagents. Of all reagents, about 1,510 (2.6%) are marked active. 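Calls use total luciferase alone and ignore viability, so some active siRNAs may act by altering cell number.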 Entries without a mark were called inactive. Reagents against one gene are numbered here.

- Test: 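Knock-downs that increase output of a recombinant reporter protein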 (primary screen)
- Cells: human HEK293 embryonic kidney cells stably expressing firefly luciferase (HEK-CMV-Luc2-Hygro)
- Reagent: single siRNA against human genes, 0.8 pmol siRNA per well
- Time to read-out: 72 h
- Measurement: 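Luciferase light (ONE-Glo) measured on one replicate plate set and viability (CellTiter-Glo) on the other, scaled to a negative control siRNA, with robust z-scores and luciferase per cell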
- Reading the numbers: total luciferase, z-score and total luciferase, % of control: higher = more reporter protein produced; luciferase per cell, z-score: higher = more reporter output per viable cell; viable cells, % of control: higher = more viable cells
- Active means: 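Active when the median/MAD z-score for overall luciferase is greater than 3; a gene was taken forward for validation with new siRNAs if at least two of its three siRNAs passed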
- Calls: active = raised luciferase; inactive = no rise

target | reagent | total luciferase, z-score | total luciferase, % of control | luciferase per cell, z-score | viable cells, % of control
PTPN12 (GeneID 5782) | 1 | -0.478 | 72.4 | -0.168 | 84.5
PTPN12 (GeneID 5782) | 2 | -0.781 | 66.4 | -1.21 | 102
PTPN12 (GeneID 5782) | 3 | 0.315 | 88.1 | -0.446 | 111
KLHL36 (GeneID 79786) | 1 | -0.275 | 76.4 | -0.2 | 90
KLHL36 (GeneID 79786) | 2 | 0.164 | 85.1 | -0.249 | 102
KLHL36 (GeneID 79786) | 3 | 0.188 | 85.6 | 0.431 | 85.4
TFEC (GeneID 22797) | 1 | 2.56 | 133 | 1.28 | 106
TFEC (GeneID 22797) | 2 | -0.212 | 77.7 | -0.225 | 92.1
TFEC (GeneID 22797) | 3 | -1.19 | 58.2 | -1.66 | 101
VPS35 (GeneID 55737) | 1 | -3.02 | 21.8 | -3.71 | 64.9
VPS35 (GeneID 55737) | 2 | -0.105 | 79.8 | 0.223 | 84.1
VPS35 (GeneID 55737) | 3 | -1.04 | 61.1 | -0.841 | 85.2
PTK6 (GeneID 5753) | 1 | -0.0433 | 81 | 0.161 | 86.8
PTK6 (GeneID 5753) | 2 | 0.981 | 101 | 1.18 | 83
PTK6 (GeneID 5753) | 3 | 0.844 | 98.7 | 1.19 | 80.6
TET2 (GeneID 54790) | 1 | -0.554 | 70.9 | -0.332 | 86.4
TET2 (GeneID 54790) | 2 | -2.72 | 27.7 | -3.38 | 75.3
TET2 (GeneID 54790) | 3 | 0.0725 | 83.3 | 0.461 | 82.5
MFAP4 (GeneID 4239) | 1 | -1.04 | 61.2 | -0.895 | 86.6
MFAP4 (GeneID 4239) | 2 | -1.37 | 54.6 | -1.03 | 79.9
MFAP4 (GeneID 4239) | 3 | 1.36 | 109 | 1.51 | 81.8
LINC01098 (GeneID 285501) | 1 | -0.481 | 72.3 | 0.652 | 68.1
LINC01098 (GeneID 285501) | 2 | -0.279 | 76.3 | 0.332 | 78.2
LINC01098 (GeneID 285501) | 3 | 0.172 | 85.3 | -0.522 | 109

No new results follow: 2 of the entries above.
target | reagent | total luciferase, z-score | total luciferase, % of control | luciferase per cell, z-score | viable cells, % of control
MFAP4 (GeneID 4239) | 1 | -1.04 | 61.2 | -0.895 | 86.6
MFAP4 (GeneID 4239) | 2 | -1.37 | 54.6 | -1.03 | 79.9
